Laboratory results from PMC8019017.
These are yes or no findings as the source states them, for the method shown. In cells and extracts the contact can be indirect. A yes stands for co-enrichment or nearness to the bait. Other partners may have been found. Where a sequence is shown, tags or fusion partners need not be part of it.

Chains of the proteins cited; added tags and fusions are not shown. Lines headed by an entry give the natural chain unless they say otherwise; changes in a name come on top.
UniProt Q14703: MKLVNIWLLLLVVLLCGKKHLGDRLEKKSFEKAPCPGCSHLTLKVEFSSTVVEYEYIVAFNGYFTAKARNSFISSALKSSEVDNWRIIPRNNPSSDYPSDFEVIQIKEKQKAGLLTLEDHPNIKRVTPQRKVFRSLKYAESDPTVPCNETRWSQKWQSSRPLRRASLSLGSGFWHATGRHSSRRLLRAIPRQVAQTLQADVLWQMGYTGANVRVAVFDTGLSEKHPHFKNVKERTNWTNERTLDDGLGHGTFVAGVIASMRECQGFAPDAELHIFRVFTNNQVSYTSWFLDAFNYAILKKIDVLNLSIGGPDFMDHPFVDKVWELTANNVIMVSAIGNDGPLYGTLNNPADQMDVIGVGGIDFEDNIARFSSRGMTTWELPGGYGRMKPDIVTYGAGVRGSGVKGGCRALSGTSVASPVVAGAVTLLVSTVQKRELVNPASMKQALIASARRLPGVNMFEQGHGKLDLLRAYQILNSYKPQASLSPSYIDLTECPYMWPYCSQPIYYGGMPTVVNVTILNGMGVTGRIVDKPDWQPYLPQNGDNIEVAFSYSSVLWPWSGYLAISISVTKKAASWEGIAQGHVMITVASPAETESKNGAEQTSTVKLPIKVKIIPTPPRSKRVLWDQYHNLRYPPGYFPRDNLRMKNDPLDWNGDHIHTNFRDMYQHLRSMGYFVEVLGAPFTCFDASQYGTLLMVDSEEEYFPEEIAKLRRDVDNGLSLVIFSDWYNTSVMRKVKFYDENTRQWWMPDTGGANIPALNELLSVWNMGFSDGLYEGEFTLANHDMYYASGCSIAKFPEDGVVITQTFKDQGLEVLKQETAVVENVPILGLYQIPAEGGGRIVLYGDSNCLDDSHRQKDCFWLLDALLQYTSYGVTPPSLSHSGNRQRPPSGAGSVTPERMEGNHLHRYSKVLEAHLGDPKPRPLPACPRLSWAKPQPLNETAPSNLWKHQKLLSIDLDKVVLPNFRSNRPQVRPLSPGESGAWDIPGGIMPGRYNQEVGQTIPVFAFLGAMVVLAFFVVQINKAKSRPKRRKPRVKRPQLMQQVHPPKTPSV

Target: T1, partner of site-1 protease (POST1) with a 3×Flag tag (human) (UniProt Q9H741)
T1 sequence: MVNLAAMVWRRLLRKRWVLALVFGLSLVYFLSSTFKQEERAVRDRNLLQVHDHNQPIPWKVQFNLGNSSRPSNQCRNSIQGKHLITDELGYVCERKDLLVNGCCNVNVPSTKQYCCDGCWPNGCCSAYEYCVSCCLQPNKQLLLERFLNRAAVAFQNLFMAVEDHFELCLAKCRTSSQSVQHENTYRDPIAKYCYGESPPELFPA
Assay: affinity purification with mass spectrometry; lysates of HeLa/POST1-3×Flag cells in NP40 buffer (0.5% NP40 in PBS, 5 mmol/L EDTA), pre-cleared with protein A/G beads, anti-Flag beads 4 h at 4 °C, eluted with 0.1 mg/mL 3×Flag peptides, LC-MS; three independent experiments; control cells without POST1-3×Flag

Q: How did the binding turn out when “site-1 protease (S1P), endogenous (from UniProt Q14703) (enzyme)” was run?
A: binds
